Taken from: PubChem BioAssay AID1259424 (University of Nebraska Medical Center, 2018)
In all, the deposit lists about 14,000 reagents; this is a random part of them. 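Higher correlation or smaller distance means closer resemblance to KSR1 loss; control wells, including KSR1 knockdowns, recur on many plates.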 Not all columns of the deposit are shown. The record does not give: the time to read-out.

Test: 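Find knockdowns that reproduce the expression shifts seen after KSR1 loss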 (primary screen)
Cells: human HCT116 colon cancer cells
Reagent: siRNA pool against human genes, 50 nM
Measured: 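Six signature mRNAs by branched-DNA multiplex assay, scaled to two housekeeping genes and non-targeting median, log2; matched to mean KSR1 knockdown profile by Pearson correlation and euclidean distance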
Scale: mean correlation with KSR1 profile: higher = expression change more like KSR1 knockdown

KLF3-AS1 → mean correlation with KSR1 profile = 0.424
RPL3L → mean correlation with KSR1 profile = 0.302
SPOCK2 → mean correlation with KSR1 profile = 0.45
RCBTB1 → mean correlation with KSR1 profile = -0.445
SRPX → mean correlation with KSR1 profile = -0.307
CPA2 → mean correlation with KSR1 profile = 0.0802
MICALL2 → mean correlation with KSR1 profile = 0.343
ZNF106 → mean correlation with KSR1 profile = 0.0459
ADGRE3 → mean correlation with KSR1 profile = 0.559
ACSL4 → mean correlation with KSR1 profile = -0.164

2 entries from above, arranged by “mean correlation with KSR1 profile”, low to high.
ACSL4 → mean correlation with KSR1 profile = -0.164
ADGRE3 → mean correlation with KSR1 profile = 0.559

The results go on.
HMGB1 → mean correlation with KSR1 profile = 0.466
CARHSP1 → mean correlation with KSR1 profile = -0.434
ZNF415 → mean correlation with KSR1 profile = 0.579
BMP3 → mean correlation with KSR1 profile = 0.114
RLN1 → mean correlation with KSR1 profile = -0.0502
MARCKSL1 → mean correlation with KSR1 profile = -0.525
RHO → mean correlation with KSR1 profile = 0.555
P2RX5 → mean correlation with KSR1 profile = -0.298
RAB5C → mean correlation with KSR1 profile = -0.828
SYT11 → mean correlation with KSR1 profile = 0.222
DAB1 → mean correlation with KSR1 profile = -0.589
SYCP1 → mean correlation with KSR1 profile = 0.728
GEMIN2 → mean correlation with KSR1 profile = 0.352
KAT2B → mean correlation with KSR1 profile = -0.342
KLHL9 → mean correlation with KSR1 profile = -0.362
HMHB1 → mean correlation with KSR1 profile = -0.539
ANGPTL2 → mean correlation with KSR1 profile = -0.0272
PSMB6 → mean correlation with KSR1 profile = 0.0717
